Measured values taken from patent publication US8642550B2 (priority 2008, dated 2014).
Entries after “also recorded” stand apart in the source; their conditions may differ. Not every detail of the peptide structures is certain; ends, links or a residue may be inferred.

Chains of the proteins cited; added tags and fusions are not shown. Residues count along the entry.
UniProt P16066, 33-1061: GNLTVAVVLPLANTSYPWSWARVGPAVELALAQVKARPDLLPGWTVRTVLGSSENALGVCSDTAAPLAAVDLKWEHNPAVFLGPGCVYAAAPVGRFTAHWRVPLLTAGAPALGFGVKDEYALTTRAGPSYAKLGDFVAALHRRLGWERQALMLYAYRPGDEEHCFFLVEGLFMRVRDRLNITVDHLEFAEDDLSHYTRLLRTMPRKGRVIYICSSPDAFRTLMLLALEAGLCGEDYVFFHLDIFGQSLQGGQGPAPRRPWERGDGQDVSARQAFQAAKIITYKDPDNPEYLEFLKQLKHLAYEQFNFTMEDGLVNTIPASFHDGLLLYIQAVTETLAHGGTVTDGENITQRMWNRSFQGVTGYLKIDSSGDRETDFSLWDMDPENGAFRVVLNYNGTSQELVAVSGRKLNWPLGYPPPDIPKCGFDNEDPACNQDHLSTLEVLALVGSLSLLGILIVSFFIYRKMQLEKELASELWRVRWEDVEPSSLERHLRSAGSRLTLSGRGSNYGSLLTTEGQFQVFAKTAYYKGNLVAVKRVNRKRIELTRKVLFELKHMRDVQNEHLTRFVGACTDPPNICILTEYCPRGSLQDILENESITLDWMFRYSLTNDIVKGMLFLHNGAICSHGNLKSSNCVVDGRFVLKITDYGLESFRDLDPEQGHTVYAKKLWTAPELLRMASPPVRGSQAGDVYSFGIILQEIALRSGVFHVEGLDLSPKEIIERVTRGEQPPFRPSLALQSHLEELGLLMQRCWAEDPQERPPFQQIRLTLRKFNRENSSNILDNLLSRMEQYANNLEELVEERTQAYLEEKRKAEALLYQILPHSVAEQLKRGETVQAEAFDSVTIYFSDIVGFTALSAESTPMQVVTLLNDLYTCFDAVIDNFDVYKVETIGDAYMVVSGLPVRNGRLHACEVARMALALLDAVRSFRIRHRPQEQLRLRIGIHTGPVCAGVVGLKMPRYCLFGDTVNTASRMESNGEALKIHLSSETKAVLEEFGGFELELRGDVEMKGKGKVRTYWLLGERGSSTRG
UniProt P18910, 29-1057: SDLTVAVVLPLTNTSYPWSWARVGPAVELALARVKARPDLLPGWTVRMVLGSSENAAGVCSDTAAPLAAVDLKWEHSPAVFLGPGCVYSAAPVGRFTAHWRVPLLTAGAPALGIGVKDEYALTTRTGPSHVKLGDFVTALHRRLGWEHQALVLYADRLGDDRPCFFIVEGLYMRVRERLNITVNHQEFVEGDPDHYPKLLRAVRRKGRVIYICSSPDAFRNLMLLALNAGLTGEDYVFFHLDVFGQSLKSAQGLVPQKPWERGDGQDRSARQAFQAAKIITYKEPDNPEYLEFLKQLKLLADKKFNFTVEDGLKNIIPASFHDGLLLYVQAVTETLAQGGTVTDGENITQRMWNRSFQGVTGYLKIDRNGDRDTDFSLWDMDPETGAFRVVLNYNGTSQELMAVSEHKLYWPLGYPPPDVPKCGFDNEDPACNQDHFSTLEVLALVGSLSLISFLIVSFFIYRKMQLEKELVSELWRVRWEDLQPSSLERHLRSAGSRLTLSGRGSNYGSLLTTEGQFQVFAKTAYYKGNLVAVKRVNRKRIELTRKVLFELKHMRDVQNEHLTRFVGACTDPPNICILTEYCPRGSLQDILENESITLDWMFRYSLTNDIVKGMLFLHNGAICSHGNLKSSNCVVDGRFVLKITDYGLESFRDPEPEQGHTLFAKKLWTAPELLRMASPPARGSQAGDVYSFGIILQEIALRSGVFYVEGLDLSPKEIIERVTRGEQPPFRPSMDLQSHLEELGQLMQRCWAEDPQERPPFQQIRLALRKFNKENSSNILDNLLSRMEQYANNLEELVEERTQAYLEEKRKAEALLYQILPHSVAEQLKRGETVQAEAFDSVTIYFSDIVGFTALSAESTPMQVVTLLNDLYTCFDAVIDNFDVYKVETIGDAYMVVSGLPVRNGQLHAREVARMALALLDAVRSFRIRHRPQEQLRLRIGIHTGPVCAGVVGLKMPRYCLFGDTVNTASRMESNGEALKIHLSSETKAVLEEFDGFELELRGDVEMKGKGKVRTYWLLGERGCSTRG

What was measured:
hNPR-A [1] = biological target: T1, hNPR-A (Homo sapiens, UniProt P16066); type: cell-based
rat NPR-A = rat NPR-A (Rattus norvegicus, UniProt P18910); type: cell-based
hNPR-A [2] = biological target: T1, hNPR-A; type: binding

In the case of `CC[C@H](C)[C@@H]1NC(=O)[C@H](CCCNC(=N)N)NC(=O)[C@H](CC(=O)O)NC(=O)[C@H](CC(C)C)NC(=O)[C@H](CCCCN)NC(=O)[C@H](CC(C)C)NC(=O)CNC(=O)[C@H](Cc2ccccc2)NC(=O)[C@@H](NC(=O)CNC(=O)[C@H](CCCCN)NC(=O)[C@H](CO)NC(=O)[C@H](CC(C)C)NC(=O)CN)CSSC[C@@H](C(=O)O)NC(=O)CNC(=O)[C@H](CC(C)C)NC(=O)CNC(=O)[C@H](CO)NC(=O)[C@H](CCSC)NC(=O)[C@H](CO)NC(=O)CNC1=O` [CNP], the “cellular cGMP elevation by high concentrations of peptide, hNPR-A” value (hNPR-A [1]) is reported as “just detectable increases in cellular cGMP concentrations; also recorded: very little effect on hNPR-A”, the “activation of rat NPR-A (cGMP elevation), in words” value (rat NPR-A) is reported as “able to maximally activate rat NPR-A” and the “competition for 125I-ANP binding to hNPR-A” value (hNPR-A [2]) is reported as “complete inability”.
